Reference: publication PMC4383587

Chains of the proteins cited; added tags and fusions are not shown. Where a name states a change or a piece, a line headed by the entry shows the natural chain unless it says otherwise. Chains listed by the source or under a name are the forms on record and can include a tag or linker.
GST-Abd-A DBD (Drosophila melanogaster), one chain, as listed by the source: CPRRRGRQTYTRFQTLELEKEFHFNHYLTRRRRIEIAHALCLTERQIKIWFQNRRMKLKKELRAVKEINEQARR

Legend:
[1] = target: GST-Abd-B DBD (UniProt P09087); test: EMSA; conditions: 50 mM HEPES pH 7.9, 100 mM KCl, 1 mM DTT, 12.5 mM MgCl2, 0.05 mM EDTA, 17% glycerol, 400 ng/ul poly(dI-dC), 20 fmol probe, 0-3000 ng protein, 30 min on ice, recombinant protein, protein details: GST, label: 3' biotin on each strand
[2] = test system: GST-Abd-A DBD (Drosophila melanogaster); test: EMSA; conditions: little-to-no binding; 50 mM HEPES pH 7.9, 100 mM KCl, 1 mM DTT, 12.5 mM MgCl2, 0.05 mM EDTA, 17% glycerol, 400 ng/ul poly(dI-dC), 20 fmol probe, 0-3000 ng protein, 30 min on ice; recombinant protein; residues 136-209; protein details: N-terminal GST (pGEX4T1); label: 3' biotin on each strand

Row | Sequence | binding result ([1]; dramatically reduced) | binding result [2] | binding result [1]
1 | ATGTATACGCCGCGGACAGTCTCTTTTTTT (double strand) [Motif 4 Mutant (Probe 5 A.8 KO)] | binds more weakly | binds more weakly | 
2 | GAGAATTCAAGATCATAATATGTATACTAA (double strand) [Motif 3 (t_MSE2 site S3, Probe 4)] |  |  | binds
3 | TTTTTATTACTTCAACTATTCAAATTT (double strand) [Motif 5 (t_MSE2 site S5, Probe 6)] |  |  | binds
4 | TTTTTGCCGCTTCAACTATTCAAATTT (double strand) [Motif 5 Mutant (Probe 6 B.4 v2 KO)] | binds more weakly | binds more weakly | 
5 | GAGAATTCAAGATCGCCGTATGTATACTAA (double strand) [Motif 3 Mutant (Probe 4 B.3 KO)] | binds more weakly | binds more weakly | 
6 | ATGTATACTAATTAGACAGTCTCTTTTTTT (double strand) [Motif 4 (t_MSE2 site S4, Probe 5)] |  |  | binds

The comparison behind a weaker result is the experiment's own reference, which may not be listed here. For part of these data: For at least one entry, the source does not settle the construct or the ends of the probe.
